Data taken from patent US20180135070A1 (BOARD OF TRUSTEES OF MICHIGAN STATE UNIVERSITY, published 2018).
No constants are given. Whether binding was seen depends on the method and setting. For some assays here: In cells and extracts the contact can be indirect. Some entries that bind do so weakly or less than the wild type. Sequences can lack the tags named with a protein.

T1: MBP-JAZ9-8×His (recombinant, E. coli-expressed) (Arabidopsis) (UniProt Q8W4J8)
T1 sequence: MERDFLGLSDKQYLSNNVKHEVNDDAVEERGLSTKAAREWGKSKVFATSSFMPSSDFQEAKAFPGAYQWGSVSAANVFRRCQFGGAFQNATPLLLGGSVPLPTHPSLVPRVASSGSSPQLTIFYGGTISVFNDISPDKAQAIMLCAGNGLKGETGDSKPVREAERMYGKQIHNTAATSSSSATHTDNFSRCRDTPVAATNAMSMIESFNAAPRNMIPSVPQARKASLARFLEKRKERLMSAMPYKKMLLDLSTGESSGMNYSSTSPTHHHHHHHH


Legend:
[1] = molecular target: T1, MBP-JAZ9-8×His (recombinant, E. coli-expressed) (Arabidopsis); assay: Ni-resin pull-down with MBP-JAZ9-8×His, JA-Ile series, anti-c-Myc immunoblot
[2] = molecular target: T1, MBP-JAZ9-8×His (recombinant, E. coli-expressed) (Arabidopsis); assay: Ni-resin pull-down with MBP-JAZ9-8×His, JA-Ile and COR series, anti-c-Myc immunoblot

Binder	binding [1]	binding [2]
COI1A384V-4×c-Myc (plant-expressed) (receptor, not shown: small tags and cut ends, In protein extracts of transgenic Arabidopsis (coi1-30 background); C-terminal 4×c-Myc tag; also called pCOI1:COI1A384V-4×c-Myc) MEDPDIKRCKLSCVATVDDVIEQVMTYITDPKDRDSASLVCRRWFKIDSETREHVTMALCYTATPDRLSRRFPNLRSLKLKGKPRAAMFNLIPENWGGYVTPWVTEISNNLRQLKSVHFRRMIVSDLDLDRLAKARADDLETLKLDKCSGFTTDGLLSIVTHCRKIKTLLMEESSFSEKDGKWLHELAQHNTSLEVLNFYMTEFAKISPKDLETIARNCRSLVSVKVGDFEILELVGFFKAAANLEEFCGGSLNEDIGMPEKYMNLVFPRKLCRLGLSYMGPNEMPILFPFAAQIRKLDLLYALLETEDHCTLIQKCPNLEVLETRNVIGDRGLEVLAQYCKQLKRLRIERGADEQGMEDEEGLVSQRGLIALAQGCQELEYMVVYVSDITNESLESIGTYLKNLCDFRLVLLDREERITDLPLDNGVRSLLIGCKKLRRFAFYLRQGGLTDLGLSYIGQYSPNVRWMLLGYVGESDEGLMEFSRGCPNLQKLEMRGCCFSERAIAAAVTKLPSLRYLWVQGYRASMTGQDLMQMARPYWNIELIPSRRVPEVNQQGEIREMEHPAHILAYYSLAGQRTDCPTTVRVLKEPI	binds	–
COI1WT-4×c-Myc (plant-expressed) (receptor) MEDPDIKRCKLSCVATVDDVIEQVMTYITDPKDRDSASLVCRRWFKIDSETREHVTMALCYTATPDRLSRRFPNLRSLKLKGKPRAAMFNLIPENWGGYVTPWVTEISNNLRQLKSVHFRRMIVSDLDLDRLAKARADDLETLKLDKCSGFTTDGLLSIVTHCRKIKTLLMEESSFSEKDGKWLHELAQHNTSLEVLNFYMTEFAKISPKDLETIARNCRSLVSVKVGDFEILELVGFFKAAANLEEFCGGSLNEDIGMPEKYMNLVFPRKLCRLGLSYMGPNEMPILFPFAAQIRKLDLLYALLETEDHCTLIQKCPNLEVLETRNVIGDRGLEVLAQYCKQLKRLRIERGADEQGMEDEEGLVSQRGLIALAQGCQELEYMAVYVSDITNESLESIGTYLKNLCDFRLVLLDREERITDLPLDNGVRSLLIGCKKLRRFAFYLRQGGLTDLGLSYIGQYSPNVRWMLLGYVGESDEGLMEFSRGCPNLQKLEMRGCCFSERAIAAAVTKLPSLRYLWVQGYRASMTGQDLMQMARPYWNIELIPSRRVPEVNQQGEIREMEHPAHILAYYSLAGQRTDCPTTVRVLKEPI	–	binds
